Record: PubChem BioAssay AID1224828 (NIAID, 2016)

Screen: 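Regulators linking TLR4 signalling to p65 nuclear translocation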 (primary screen)
Cells: mouse RAW264.7 G9 macrophage reporter cells (GFP-p65, Tnf promoter-mCherry)
Knock-down reagent: siRNA pool against mouse genes, 100 nM
Timing: 2 days siRNA transfection, then 40 min LPS before fixation
Treatment: LPS (Salmonella minnesota R595) at 10 ng/ml
Read-out: 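Microscopy ratio of nuclear to perinuclear-ring GFP-p65 signal, scaled to the plate median; gene score is the average of two replicate robust z-scores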
Reading the numbers: p65 translocation robust z-score: higher = more nuclear NF-kappaB p65 after LPS than the plate median; nuclear/cytoplasmic p65 ratio: higher = more nuclear NF-kappaB p65
Call rule: 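Called active when z exceeds 3.3 or falls under -1.56 (median of Tlr4 controls), giving activity score of at least 50; no calls for control wells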
Meaning of the calls: active = hit (p65 shift raised or lowered); inactive = no clear change
Shown is an unselected part of about 17,000 deposited reagents. 762 of all reagents (4.5%) count as active. 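Active calls include both raised and lowered p65 entry, mostly lowered; wells with fewer than 50 cells lack a z-score.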 The raw values are shown without normalisation. Reagents against one gene are numbered here. A reagent listed more than once was tested more than once; the source does not tell the runs apart.

gene knocked down	reagent no.	p65 translocation robust z-score	nuclear/cytoplasmic p65 ratio, rep 1	nuclear/cytoplasmic p65 ratio, rep 2	low cell count flag	Call
Wnk4	1	-0.75	1.5	1.34	enough cells to score	inactive
Cyp2j5	1	0.31	1.62	1.84	enough cells to score	inactive
Cbx7	1	-1.61	1.28	1.58	enough cells to score	active
Oplah	1	0.83	1.55	1.23	enough cells to score	inactive
Ngp	1	-0.56	1.7	1.5	enough cells to score	inactive
Rtf2	1		1.26	0.91	fewer than 50 cells per well; well left out of scoring	inactive
Rtf2	2	-2.23	1.15	1.16	enough cells to score	active
Socs5	1	0.95	1.71	1.6	enough cells to score	inactive
Or8k25	1	1.51	1.85	1.83	enough cells to score	inactive
Or8k25	2	2.08	1.67	1.7	enough cells to score	inactive
Kif23	1		1.27	1.11	fewer than 50 cells per well; well left out of scoring	inactive
Dchs1	1	-0.45	1.57	1.53	enough cells to score	inactive
F2	1	0.84	1.48	1.56	enough cells to score	inactive
Sh2b1	1		1.28	1.17	fewer than 50 cells per well; well left out of scoring	inactive
Srgap3	1	-0.51	1.49	1.71	enough cells to score	inactive
Or52b2	1		1.63	1.22	fewer than 50 cells per well; well left out of scoring	inactive
Adgra3	1	0.59	1.57	1.69	enough cells to score	inactive
Npr2	1	-1.62	1.35	1.23	enough cells to score	active
Npr2	1	-1.37	1.32	1.38	enough cells to score	inactive
Or5as1	1	0.95	1.88	1.66	enough cells to score	inactive
Spag11a	1	1.3	1.52	1.44	enough cells to score	inactive
Fkbp7	1	-1.99	1.21	1.27	enough cells to score	active
Atp6v0e	1	-1.12	1.27	1.52	enough cells to score	inactive
Bhlhe23	1		1.22	1.51	fewer than 50 cells per well; well left out of scoring	inactive
